The text below walks through data of the supplement of paper PMC10849652.

By UniProt entry, the sequences of proteins in these tests, tags left out. Where a name states a change or a piece, a line headed by the entry shows the natural chain unless it says otherwise.
UniProt O14757: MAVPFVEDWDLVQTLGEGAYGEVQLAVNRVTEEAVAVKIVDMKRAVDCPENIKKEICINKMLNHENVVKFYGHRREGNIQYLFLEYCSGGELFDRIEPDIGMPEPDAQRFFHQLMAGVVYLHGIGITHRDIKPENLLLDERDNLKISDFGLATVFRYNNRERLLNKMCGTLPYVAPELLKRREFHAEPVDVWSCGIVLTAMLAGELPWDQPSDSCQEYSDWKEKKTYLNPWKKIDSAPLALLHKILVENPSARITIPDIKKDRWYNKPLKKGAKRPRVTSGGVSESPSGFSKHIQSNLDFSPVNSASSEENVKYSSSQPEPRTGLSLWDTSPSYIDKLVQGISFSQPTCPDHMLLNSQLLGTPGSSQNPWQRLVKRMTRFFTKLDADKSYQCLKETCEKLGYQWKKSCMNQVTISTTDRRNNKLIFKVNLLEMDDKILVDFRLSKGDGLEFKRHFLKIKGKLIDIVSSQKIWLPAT
UniProt P24386: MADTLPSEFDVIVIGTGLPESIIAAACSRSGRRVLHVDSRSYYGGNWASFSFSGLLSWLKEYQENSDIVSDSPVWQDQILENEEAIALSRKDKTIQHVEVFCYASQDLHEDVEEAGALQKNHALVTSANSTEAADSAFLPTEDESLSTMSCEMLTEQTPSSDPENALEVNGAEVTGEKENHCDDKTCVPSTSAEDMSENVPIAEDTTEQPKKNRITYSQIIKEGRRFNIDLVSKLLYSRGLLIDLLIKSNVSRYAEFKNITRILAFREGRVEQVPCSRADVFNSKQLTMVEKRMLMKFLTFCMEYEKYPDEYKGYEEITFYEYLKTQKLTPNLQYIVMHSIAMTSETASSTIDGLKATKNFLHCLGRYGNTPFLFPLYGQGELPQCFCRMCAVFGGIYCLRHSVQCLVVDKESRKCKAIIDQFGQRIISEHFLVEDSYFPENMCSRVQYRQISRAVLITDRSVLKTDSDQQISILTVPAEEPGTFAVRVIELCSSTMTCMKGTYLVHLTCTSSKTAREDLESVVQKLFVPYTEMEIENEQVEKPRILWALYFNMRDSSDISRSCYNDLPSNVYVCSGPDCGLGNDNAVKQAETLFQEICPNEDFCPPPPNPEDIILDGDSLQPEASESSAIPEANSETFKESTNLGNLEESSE
UniProt Q9BQ75: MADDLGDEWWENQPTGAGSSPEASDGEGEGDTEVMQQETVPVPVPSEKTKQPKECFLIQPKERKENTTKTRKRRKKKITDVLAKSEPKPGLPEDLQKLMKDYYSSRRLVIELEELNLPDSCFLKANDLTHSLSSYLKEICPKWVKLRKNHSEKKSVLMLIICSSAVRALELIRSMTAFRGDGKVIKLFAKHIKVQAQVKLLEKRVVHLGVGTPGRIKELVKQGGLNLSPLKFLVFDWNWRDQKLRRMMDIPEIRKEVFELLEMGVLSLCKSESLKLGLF
UniProt Q9BY43: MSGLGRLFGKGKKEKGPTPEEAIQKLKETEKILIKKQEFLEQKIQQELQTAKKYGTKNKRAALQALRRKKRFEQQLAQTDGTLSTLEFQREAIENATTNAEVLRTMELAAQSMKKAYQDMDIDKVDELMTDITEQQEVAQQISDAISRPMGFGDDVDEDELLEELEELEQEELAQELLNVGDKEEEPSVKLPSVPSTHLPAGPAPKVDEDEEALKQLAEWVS
UniProt P62633: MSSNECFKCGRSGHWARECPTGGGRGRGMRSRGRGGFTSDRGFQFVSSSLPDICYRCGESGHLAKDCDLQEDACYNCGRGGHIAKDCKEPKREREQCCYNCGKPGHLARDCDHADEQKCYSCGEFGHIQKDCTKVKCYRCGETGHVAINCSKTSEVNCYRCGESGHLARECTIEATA
UniProt Q96MX0: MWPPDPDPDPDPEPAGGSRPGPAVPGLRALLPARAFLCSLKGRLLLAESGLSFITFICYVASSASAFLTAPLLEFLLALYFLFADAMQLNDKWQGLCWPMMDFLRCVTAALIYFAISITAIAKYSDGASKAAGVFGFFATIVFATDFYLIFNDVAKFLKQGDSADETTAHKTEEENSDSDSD
UniProt Q9NRG0: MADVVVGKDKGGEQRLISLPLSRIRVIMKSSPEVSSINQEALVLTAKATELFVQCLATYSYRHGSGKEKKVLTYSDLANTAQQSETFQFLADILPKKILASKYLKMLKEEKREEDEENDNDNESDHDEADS
UniProt O14646: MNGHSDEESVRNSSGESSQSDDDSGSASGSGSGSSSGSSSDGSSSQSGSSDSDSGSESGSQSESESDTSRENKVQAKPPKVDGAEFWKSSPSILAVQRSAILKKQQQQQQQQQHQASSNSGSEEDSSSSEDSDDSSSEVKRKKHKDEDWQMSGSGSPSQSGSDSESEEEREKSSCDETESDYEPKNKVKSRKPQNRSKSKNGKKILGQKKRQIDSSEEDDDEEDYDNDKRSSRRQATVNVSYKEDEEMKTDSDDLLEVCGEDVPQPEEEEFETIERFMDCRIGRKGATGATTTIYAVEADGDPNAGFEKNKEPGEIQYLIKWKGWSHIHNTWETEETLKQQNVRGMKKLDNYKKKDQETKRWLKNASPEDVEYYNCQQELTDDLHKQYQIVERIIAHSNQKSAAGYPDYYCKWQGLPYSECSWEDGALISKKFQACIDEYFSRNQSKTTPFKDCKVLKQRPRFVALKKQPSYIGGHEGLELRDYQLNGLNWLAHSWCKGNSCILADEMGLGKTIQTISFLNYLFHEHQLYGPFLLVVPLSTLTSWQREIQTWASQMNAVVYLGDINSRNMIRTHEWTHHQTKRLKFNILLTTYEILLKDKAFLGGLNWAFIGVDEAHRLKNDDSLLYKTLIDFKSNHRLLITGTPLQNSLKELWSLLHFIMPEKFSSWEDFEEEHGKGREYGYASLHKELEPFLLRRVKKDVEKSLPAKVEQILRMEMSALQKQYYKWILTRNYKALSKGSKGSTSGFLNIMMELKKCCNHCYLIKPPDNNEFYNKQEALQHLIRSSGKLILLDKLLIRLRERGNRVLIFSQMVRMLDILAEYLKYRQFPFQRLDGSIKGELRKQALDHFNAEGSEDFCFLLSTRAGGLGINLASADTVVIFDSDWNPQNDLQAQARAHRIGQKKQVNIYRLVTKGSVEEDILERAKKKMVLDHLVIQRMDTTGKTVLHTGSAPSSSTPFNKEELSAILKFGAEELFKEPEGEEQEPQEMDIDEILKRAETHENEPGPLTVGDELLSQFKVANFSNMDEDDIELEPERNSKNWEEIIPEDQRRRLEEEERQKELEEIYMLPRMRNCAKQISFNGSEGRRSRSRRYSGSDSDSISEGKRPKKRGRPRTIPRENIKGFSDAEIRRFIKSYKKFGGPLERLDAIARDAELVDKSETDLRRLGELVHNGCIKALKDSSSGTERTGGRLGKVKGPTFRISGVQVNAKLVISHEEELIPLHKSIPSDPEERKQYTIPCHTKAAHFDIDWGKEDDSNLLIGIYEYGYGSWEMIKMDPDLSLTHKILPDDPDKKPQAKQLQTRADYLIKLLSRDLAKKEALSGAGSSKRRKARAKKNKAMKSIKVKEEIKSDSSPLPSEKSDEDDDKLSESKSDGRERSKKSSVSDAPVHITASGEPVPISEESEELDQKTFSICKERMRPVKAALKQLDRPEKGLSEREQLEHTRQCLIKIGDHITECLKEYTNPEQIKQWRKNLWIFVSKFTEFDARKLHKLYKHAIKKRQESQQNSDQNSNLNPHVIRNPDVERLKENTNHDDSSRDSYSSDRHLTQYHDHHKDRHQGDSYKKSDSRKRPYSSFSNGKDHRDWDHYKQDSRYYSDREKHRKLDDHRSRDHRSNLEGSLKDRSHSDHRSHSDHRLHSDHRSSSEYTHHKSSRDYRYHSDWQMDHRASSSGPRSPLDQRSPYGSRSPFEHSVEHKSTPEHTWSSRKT
UniProt Q8TDI0: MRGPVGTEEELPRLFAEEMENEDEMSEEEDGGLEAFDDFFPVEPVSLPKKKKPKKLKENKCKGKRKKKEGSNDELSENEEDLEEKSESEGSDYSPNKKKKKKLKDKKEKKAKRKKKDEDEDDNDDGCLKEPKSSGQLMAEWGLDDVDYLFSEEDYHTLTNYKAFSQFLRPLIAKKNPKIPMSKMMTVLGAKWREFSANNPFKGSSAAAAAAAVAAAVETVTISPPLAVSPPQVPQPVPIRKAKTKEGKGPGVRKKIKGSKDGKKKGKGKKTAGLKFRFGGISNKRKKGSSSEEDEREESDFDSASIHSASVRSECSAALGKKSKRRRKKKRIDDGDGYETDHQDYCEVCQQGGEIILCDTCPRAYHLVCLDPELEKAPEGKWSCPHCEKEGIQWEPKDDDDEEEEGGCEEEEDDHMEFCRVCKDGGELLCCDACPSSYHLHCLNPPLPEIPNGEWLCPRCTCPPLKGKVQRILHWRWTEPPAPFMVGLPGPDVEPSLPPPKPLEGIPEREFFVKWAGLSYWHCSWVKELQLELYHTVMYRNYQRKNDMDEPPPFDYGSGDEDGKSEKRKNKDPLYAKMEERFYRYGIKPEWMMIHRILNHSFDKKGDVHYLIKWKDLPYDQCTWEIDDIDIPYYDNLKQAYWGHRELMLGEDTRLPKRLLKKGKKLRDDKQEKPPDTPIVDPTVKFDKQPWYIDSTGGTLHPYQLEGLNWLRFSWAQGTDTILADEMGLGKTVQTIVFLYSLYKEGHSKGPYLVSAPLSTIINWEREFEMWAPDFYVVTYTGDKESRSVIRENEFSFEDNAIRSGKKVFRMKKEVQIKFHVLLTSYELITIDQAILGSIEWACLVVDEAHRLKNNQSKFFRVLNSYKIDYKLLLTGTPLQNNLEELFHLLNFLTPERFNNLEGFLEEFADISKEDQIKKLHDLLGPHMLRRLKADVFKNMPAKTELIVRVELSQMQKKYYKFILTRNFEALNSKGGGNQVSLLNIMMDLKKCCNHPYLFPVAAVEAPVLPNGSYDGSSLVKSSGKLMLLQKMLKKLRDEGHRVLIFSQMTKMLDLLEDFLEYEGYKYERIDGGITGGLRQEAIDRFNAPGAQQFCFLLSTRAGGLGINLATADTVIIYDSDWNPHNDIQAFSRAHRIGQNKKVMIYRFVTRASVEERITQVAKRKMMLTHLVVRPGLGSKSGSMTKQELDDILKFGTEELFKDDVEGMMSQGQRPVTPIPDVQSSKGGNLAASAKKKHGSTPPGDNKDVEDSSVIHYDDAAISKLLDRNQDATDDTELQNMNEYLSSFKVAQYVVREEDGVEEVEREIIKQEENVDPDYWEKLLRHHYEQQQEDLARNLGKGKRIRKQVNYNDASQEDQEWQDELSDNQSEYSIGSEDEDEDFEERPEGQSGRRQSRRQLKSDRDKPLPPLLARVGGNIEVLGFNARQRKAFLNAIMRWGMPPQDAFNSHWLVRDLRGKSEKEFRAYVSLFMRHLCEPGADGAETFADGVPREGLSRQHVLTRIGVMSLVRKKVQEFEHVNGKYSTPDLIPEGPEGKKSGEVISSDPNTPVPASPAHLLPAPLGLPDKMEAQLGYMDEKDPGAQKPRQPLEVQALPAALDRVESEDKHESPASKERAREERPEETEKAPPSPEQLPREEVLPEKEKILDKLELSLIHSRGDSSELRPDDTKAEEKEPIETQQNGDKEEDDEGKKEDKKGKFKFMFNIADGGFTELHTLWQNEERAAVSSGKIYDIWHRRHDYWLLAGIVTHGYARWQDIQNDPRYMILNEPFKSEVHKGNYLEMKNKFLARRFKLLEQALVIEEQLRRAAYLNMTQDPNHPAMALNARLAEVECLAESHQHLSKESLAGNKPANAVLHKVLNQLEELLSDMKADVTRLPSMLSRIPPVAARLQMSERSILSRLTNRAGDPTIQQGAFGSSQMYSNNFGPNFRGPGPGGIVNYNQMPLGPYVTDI
UniProt O15111: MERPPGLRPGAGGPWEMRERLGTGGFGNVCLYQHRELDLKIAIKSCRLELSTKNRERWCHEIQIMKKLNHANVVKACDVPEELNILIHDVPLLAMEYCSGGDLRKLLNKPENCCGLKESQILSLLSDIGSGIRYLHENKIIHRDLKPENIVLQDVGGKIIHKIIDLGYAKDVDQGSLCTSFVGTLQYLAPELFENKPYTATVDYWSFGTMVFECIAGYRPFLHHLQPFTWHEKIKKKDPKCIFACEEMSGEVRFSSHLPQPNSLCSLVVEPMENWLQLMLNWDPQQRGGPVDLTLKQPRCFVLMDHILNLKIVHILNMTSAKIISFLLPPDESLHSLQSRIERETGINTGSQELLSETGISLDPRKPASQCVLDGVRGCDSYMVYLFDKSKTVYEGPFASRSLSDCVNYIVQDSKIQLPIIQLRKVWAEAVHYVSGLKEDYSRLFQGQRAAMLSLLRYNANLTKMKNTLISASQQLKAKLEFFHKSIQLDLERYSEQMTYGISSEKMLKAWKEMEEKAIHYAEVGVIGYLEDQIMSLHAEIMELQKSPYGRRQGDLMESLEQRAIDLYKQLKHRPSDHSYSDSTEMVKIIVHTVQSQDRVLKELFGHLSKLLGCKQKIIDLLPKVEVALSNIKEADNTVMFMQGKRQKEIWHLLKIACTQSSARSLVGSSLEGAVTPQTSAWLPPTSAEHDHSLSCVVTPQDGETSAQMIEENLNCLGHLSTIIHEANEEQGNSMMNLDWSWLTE

The list shows a part of the results.

Compound in the first assay: CC1=C(C=C(C=C1)NC(=O)C2=CC(=CC=C2)C(C)(C)C#N)NC3=CC4=C(C=C3)N=CN(C4=O)C
Kind of assay: log2 fold change, soluble protein after heating vs DMSO (PISA); higher = thermal stabilisation; K562 lysate, 10 uM; active = over 0.2 and 3.5 SD of the protein, either way, in both replicates (recomputed). Put shortly: (§1)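 A 30 min treatment with 10 μM compound was applied to crude K562 extract at 1 mg/mL protein in PBS pH 7.4 with 1 mM MgCl2. Heating for 3 min spanned 48°C-58°C, after which aliquots were pooled, adjusted to 0.5% NP-40 at 4°C and spun at 21,000xg for 90 min. TMTpro 16plex LC-MS/MS of the supernatant, with channel sums equalised, gave values recorded as log-two fold change in thermal stability against solvent controls, from duplicates.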
For CIT isoform 4 (UniProt O14578), the log2 fold change is inactive: -0.018.
Same read-out and setting: as for CHEK1 (UniProt O14757), the figure is inactive: 0.026; as for CHCHD2P9 (UniProt Q5T1J5), inactive: -0.099.
Still for that read-out and setting: with CIRBP (UniProt Q14011) the figure was inactive: 0.
For the target CMIP (UniProt Q8IY22), the log2 fold change is inactive: 0.
CHKA (UniProt P35790): the log2 fold change is inactive: 0.05.
With CHCHD4 isoform 2 (UniProt Q8N4Q1), the log2 fold change was inactive: 0.039.
On the same count and under the same terms, as for CHM (UniProt P24386), the figure is inactive: -0.023; as for CKM (UniProt P06732), inactive: 0.044; as for CHID1 (UniProt Q9BWS9), inactive: 0.026.
Still for that read-out and setting: with CMSS1 (UniProt Q9BQ75) the figure was inactive: -0.059.
Take CHMP4A isoform 2 (UniProt Q9BY43): the log2 fold change was inactive: 0.036.
On the same count and under the same terms, with CNBP isoform 4 (UniProt P62633) the figure was inactive: 0.263; with CHMP5 (UniProt Q9NZZ3), inactive: 0.034; with CMC1 (UniProt Q7Z7K0), inactive: -0.081.
Same read-out and setting: with CHCHD3 (UniProt Q9NX63) the figure was inactive: -0.005; with CMTM3 (UniProt Q96MX0), inactive: 0.06.
As to CIAO2B (UniProt Q9Y3D0), the log2 fold change is inactive: 0.048.
Same read-out and setting: as for CKMT2 (UniProt P17540), the figure is inactive: -0.029; as for CHRAC1 (UniProt Q9NRG0), inactive: -0.006.
The same measure, in the same setting: as for CISD2 (UniProt Q8N5K1), the figure is inactive: 0.014.
For CIZ1 (UniProt Q9ULV3), the log2 fold change was inactive: -0.031.
As for CHD1 (UniProt O14646), the log2 fold change was inactive: -0.052.
The same measure, in the same setting: with CHURC1 isoform 2 (UniProt Q8WUH1) the figure was inactive: 0.085; with CIC (UniProt I3L2J0), inactive: 0.029; with CKAP5 (UniProt Q14008), inactive: -0.013.
With CHD5 (UniProt Q8TDI0), the log2 fold change is inactive: -0.005.
Consider CHMP7 (UniProt Q8WUX9), for which the log2 fold change was inactive: -0.035.
As to CHD7 (UniProt Q9P2D1), the log2 fold change was inactive: 0.074.
Same read-out and setting: with CHD1L (UniProt Q86WJ1) the figure was inactive: 0.029.
For CHD3 isoform 3 (UniProt Q12873), the log2 fold change was inactive: 0.
CHKB (UniProt Q9Y259): the log2 fold change is inactive: 0.095.
Still for that read-out and setting: as for CHUK (UniProt O15111), the figure is inactive: -0.013.

Compound in the next assay: CC1=C(C=C(C=C1)NC(=O)C2=CC(=CC=C2)N(C)C)NC(=O)C3=CC=C(C=C3)O
Described as above. Put shortly:
as §1
For the target CIT isoform 4 (UniProt O14578), the log2 fold change is inactive: 0.004.
As to CHEK1 (UniProt O14757), the log2 fold change is inactive: -0.005.
On to CHCHD2P9 (UniProt Q5T1J5), for which the log2 fold change is inactive: -0.038.
For CIRBP (UniProt Q14011), the log2 fold change is inactive: -0.012.
The same measure, in the same setting: with CMIP (UniProt Q8IY22) the figure was inactive: 0.029; with CHKA (UniProt P35790), inactive: 0.001; with CHCHD4 isoform 2 (UniProt Q8N4Q1), inactive: 0.
On the same count and under the same terms, as for CHM (UniProt P24386), the figure is inactive: -0.064; as for CKM (UniProt P06732), inactive: 0.005; as for CHID1 (UniProt Q9BWS9), inactive: -0.013.
CMSS1 (UniProt Q9BQ75): the log2 fold change was inactive: 0.019.
For CHMP4A isoform 2 (UniProt Q9BY43), the log2 fold change is inactive: -0.03.
Turning to CNBP isoform 4 (UniProt P62633), the log2 fold change is inactive: -0.025.
As for CHMP5 (UniProt Q9NZZ3), the log2 fold change is inactive: -0.043.
For CMC1 (UniProt Q7Z7K0), the log2 fold change was inactive: -0.031.
In the case of CHCHD3 (UniProt Q9NX63), the log2 fold change was inactive: -0.014.
For CMTM3 (UniProt Q96MX0), the log2 fold change is inactive: -0.039.
For CIAO2B (UniProt Q9Y3D0), the log2 fold change is inactive: 0.031.
Same read-out and setting: as for CKMT2 (UniProt P17540), the figure is inactive: 0.043.
The same measure, in the same setting: as for CHRAC1 (UniProt Q9NRG0), the figure is inactive: -0.03.
In the case of CISD2 (UniProt Q8N5K1), the log2 fold change is inactive: -0.023.
The same measure, in the same setting: with CIZ1 (UniProt Q9ULV3) the figure was inactive: -0.012.
CHD1 (UniProt O14646): the log2 fold change was inactive: 0.095.
Still for that read-out and setting: as for CHURC1 isoform 2 (UniProt Q8WUH1), the figure is inactive: -0.102; as for CIC (UniProt I3L2J0), inactive: 0.02.
For CKAP5 (UniProt Q14008), the log2 fold change is inactive: 0.023.
On the same count and under the same terms, as for CHD5 (UniProt Q8TDI0), the figure is inactive: 0.029; as for CHMP7 (UniProt Q8WUX9), inactive: 0.017; as for CHD7 (UniProt Q9P2D1), inactive: 0.033.
Take CHD1L (UniProt Q86WJ1): the log2 fold change is inactive: 0.061.
Same read-out and setting: as for CHD3 isoform 3 (UniProt Q12873), the figure is inactive: -0.013; as for CHKB (UniProt Q9Y259), inactive: 0.055; as for CHUK (UniProt O15111), inactive: 0.009.

Compound in another assay: CC1=CC=C(C=C1)SC2=C3C=C(SC3=CN=C2)C(=O)N
Described as above. Put shortly:
as §1
On to CIT isoform 4 (UniProt O14578), for which the log2 fold change was inactive: -0.015.
With CHEK1 (UniProt O14757), the log2 fold change is inactive: -0.024.
For CHCHD2P9 (UniProt Q5T1J5), the log2 fold change was inactive: 0.035.
Still for that read-out and setting: with CIRBP (UniProt Q14011) the figure was inactive: 0.018; with CMIP (UniProt Q8IY22), inactive: 0.004.
Same read-out and setting: as for CHKA (UniProt P35790), the figure is inactive: -0.047.
Same read-out and setting: as for CHCHD4 isoform 2 (UniProt Q8N4Q1), the figure is inactive: 0.013; as for CHM (UniProt P24386), inactive: 0.015; as for CKM (UniProt P06732), inactive: -0.02.
On to CHID1 (UniProt Q9BWS9), for which the log2 fold change was inactive: -0.001.
As for CMSS1 (UniProt Q9BQ75), the log2 fold change was inactive: -0.004.
On the same count and under the same terms, with CHMP4A isoform 2 (UniProt Q9BY43) the figure was inactive: -0.007; with CNBP isoform 4 (UniProt P62633), inactive: -0.003; with CHMP5 (UniProt Q9NZZ3), inactive: -0.023.
On to CMC1 (UniProt Q7Z7K0), for which the log2 fold change was inactive: -0.029.
In the case of CHCHD3 (UniProt Q9NX63), the log2 fold change was inactive: 0.009.
On to CMTM3 (UniProt Q96MX0), for which the log2 fold change was inactive: -0.016.
Still for that read-out and setting: with CIAO2B (UniProt Q9Y3D0) the figure was inactive: -0.033; with CKMT2 (UniProt P17540), inactive: 0.036.
Take CHRAC1 (UniProt Q9NRG0): the log2 fold change is inactive: 0.047.
On the same count and under the same terms, as for CISD2 (UniProt Q8N5K1), the figure is inactive: -0.011.
Still for that read-out and setting: with CIZ1 (UniProt Q9ULV3) the figure was inactive: -0.058; with CHD1 (UniProt O14646), inactive: 0.005.
Still for that read-out and setting: as for CHURC1 isoform 2 (UniProt Q8WUH1), the figure is inactive: 0.004.
Take CIC (UniProt I3L2J0): the log2 fold change was inactive: 0.028.
As for CKAP5 (UniProt Q14008), the log2 fold change was inactive: 0.006.
On the same count and under the same terms, as for CHD5 (UniProt Q8TDI0), the figure is inactive: 0.01; as for CHMP7 (UniProt Q8WUX9), inactive: 0.
Same read-out and setting: as for CHD7 (UniProt Q9P2D1), the figure is inactive: 0.048.
In the case of CHD1L (UniProt Q86WJ1), the log2 fold change was inactive: 0.019.
For CHD3 isoform 3 (UniProt Q12873), the log2 fold change was inactive: 0.007.
The same measure, in the same setting: as for CHKB (UniProt Q9Y259), the figure is inactive: -0.025.
Consider CHUK (UniProt O15111), for which the log2 fold change is inactive: -0.016.
